No constants are given. Whether binding was seen depends on the method and setting. Binding seen in cells or lysates may run through a third protein. Binding can be weak; no strength is given. Where a sequence is shown, tags or fusion partners need not be part of it.

Binding data for 5 molecules are collected here from paper PMC7337498.

The target of one assay is T1, GFP-LUZP1 (human) (UniProt Q86V48).
T1 sequence: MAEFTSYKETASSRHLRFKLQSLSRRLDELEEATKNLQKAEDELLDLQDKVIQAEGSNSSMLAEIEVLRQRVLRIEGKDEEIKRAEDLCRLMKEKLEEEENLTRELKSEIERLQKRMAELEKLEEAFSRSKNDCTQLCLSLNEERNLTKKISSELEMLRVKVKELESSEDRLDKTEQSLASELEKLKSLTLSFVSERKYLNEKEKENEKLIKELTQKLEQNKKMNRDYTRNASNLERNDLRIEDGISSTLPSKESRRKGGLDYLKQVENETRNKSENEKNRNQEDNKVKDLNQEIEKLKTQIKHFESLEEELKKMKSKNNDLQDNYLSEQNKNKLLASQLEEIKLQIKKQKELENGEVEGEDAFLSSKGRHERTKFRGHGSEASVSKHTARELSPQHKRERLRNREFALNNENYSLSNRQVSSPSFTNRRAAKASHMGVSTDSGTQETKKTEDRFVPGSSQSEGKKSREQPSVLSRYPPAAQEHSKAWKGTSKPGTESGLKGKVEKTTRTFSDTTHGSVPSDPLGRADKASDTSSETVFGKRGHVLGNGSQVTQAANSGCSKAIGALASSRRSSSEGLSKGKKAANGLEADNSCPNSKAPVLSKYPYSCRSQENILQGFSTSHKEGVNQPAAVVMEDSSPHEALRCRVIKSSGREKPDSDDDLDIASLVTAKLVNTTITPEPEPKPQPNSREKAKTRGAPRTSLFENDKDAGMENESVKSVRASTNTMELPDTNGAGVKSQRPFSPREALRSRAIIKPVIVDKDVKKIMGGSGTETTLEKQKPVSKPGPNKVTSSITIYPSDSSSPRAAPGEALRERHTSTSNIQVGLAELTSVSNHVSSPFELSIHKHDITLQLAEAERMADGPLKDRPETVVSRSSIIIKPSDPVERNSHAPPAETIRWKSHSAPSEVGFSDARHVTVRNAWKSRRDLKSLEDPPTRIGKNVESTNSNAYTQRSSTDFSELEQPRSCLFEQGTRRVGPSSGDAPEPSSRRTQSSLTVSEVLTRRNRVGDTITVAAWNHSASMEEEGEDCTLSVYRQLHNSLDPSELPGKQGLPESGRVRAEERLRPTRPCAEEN
Put plainly: co-IP; protein extracts of RPE-1 cells stably expressing GFP fusions; GFP antibody-conjugated Protein G Sepharose beads; endogenous partner detected by Western blot; lysis buffer 50 mM Hepes pH 8, 100 mM KCl, 2 mM EDTA, 10% glycerol, 0.1% NP-40, 1 mM DTT.

Assay [1] concerns the target GFP-EPLINβ (HEK293) (human). The assay is described as follows: co-IP; extracts of HEK293 stable/inducible lines expressing FLAG-LUZP1 constructs and GFP-EPLINβ; GFP antibody-conjugated beads; FLAG fusions detected by Western blot.

Consider “endogenous EPLINα (RPE-1) (human (endogenous in RPE-1))”, for which, in the assay with GFP-LUZP1 (human), the binding entry is on record as “binds”.

As to “endogenous EPLINβ (RPE-1) (human (endogenous in RPE-1))”, the binding result with GFP-LUZP1 (human) is “binds”.

B1: FLAG-LUZP1 (full length) (protein, UniProt Q86V48-1 1-1076)
chain: MAEFTSYKETASSRHLRFKLQSLSRRLDELEEATKNLQKAEDELLDLQDKVIQAEGSNSSMLAEIEVLRQRVLRIEGKDEEIKRAEDLCRLMKEKLEEEENLTRELKSEIERLQKRMAELEKLEEAFSRSKNDCTQLCLSLNEERNLTKKISSELEMLRVKVKELESSEDRLDKTEQSLASELEKLKSLTLSFVSERKYLNEKEKENEKLIKELTQKLEQNKKMNRDYTRNASNLERNDLRIEDGISSTLPSKESRRKGGLDYLKQVENETRNKSENEKNRNQEDNKVKDLNQEIEKLKTQIKHFESLEEELKKMKSKNNDLQDNYLSEQNKNKLLASQLEEIKLQIKKQKELENGEVEGEDAFLSSKGRHERTKFRGHGSEASVSKHTARELSPQHKRERLRNREFALNNENYSLSNRQVSSPSFTNRRAAKASHMGVSTDSGTQETKKTEDRFVPGSSQSEGKKSREQPSVLSRYPPAAQEHSKAWKGTSKPGTESGLKGKVEKTTRTFSDTTHGSVPSDPLGRADKASDTSSETVFGKRGHVLGNGSQVTQAANSGCSKAIGALASSRRSSSEGLSKGKKAANGLEADNSCPNSKAPVLSKYPYSCRSQENILQGFSTSHKEGVNQPAAVVMEDSSPHEALRCRVIKSSGREKPDSDDDLDIASLVTAKLVNTTITPEPEPKPQPNSREKAKTRGAPRTSLFENDKDAGMENESVKSVRASTNTMELPDTNGAGVKSQRPFSPREALRSRAIIKPVIVDKDVKKIMGGSGTETTLEKQKPVSKPGPNKVTSSITIYPSDSSSPRAAPGEALRERHTSTSNIQVGLAELTSVSNHVSSPFELSIHKHDITLQLAEAERMADGPLKDRPETVVSRSSIIIKPSDPVERNSHAPPAETIRWKSHSAPSEVGFSDARHVTVRNAWKSRRDLKSLEDPPTRIGKNVESTNSNAYTQRSSTDFSELEQPRSCLFEQGTRRVGPSSGDAPEPSSRRTQSSLTVSEVLTRRNRVGDTITVAAWNHSASMEEEGEDCTLSVYRQLHNSLDPSELPGKQGLPESGRVRAEERLRPTRPCAEEN
Regarding B1, the binding result in assay [1] is recorded as “binds”.

B2: FLAG-LUZP1 (aa 1–296) (domain or fragment, UniProt Q86V48-1 1-296)
chain: MAEFTSYKETASSRHLRFKLQSLSRRLDELEEATKNLQKAEDELLDLQDKVIQAEGSNSSMLAEIEVLRQRVLRIEGKDEEIKRAEDLCRLMKEKLEEEENLTRELKSEIERLQKRMAELEKLEEAFSRSKNDCTQLCLSLNEERNLTKKISSELEMLRVKVKELESSEDRLDKTEQSLASELEKLKSLTLSFVSERKYLNEKEKENEKLIKELTQKLEQNKKMNRDYTRNASNLERNDLRIEDGISSTLPSKESRRKGGLDYLKQVENETRNKSENEKNRNQEDNKVKDLNQEIE
In the case of B2, the binding result in assay [1] is given as “no binding”.

B3: FLAG-LUZP1 (aa 297–1,076) (domain or fragment, UniProt Q86V48-1 297-1076)
chain: KLKTQIKHFESLEEELKKMKSKNNDLQDNYLSEQNKNKLLASQLEEIKLQIKKQKELENGEVEGEDAFLSSKGRHERTKFRGHGSEASVSKHTARELSPQHKRERLRNREFALNNENYSLSNRQVSSPSFTNRRAAKASHMGVSTDSGTQETKKTEDRFVPGSSQSEGKKSREQPSVLSRYPPAAQEHSKAWKGTSKPGTESGLKGKVEKTTRTFSDTTHGSVPSDPLGRADKASDTSSETVFGKRGHVLGNGSQVTQAANSGCSKAIGALASSRRSSSEGLSKGKKAANGLEADNSCPNSKAPVLSKYPYSCRSQENILQGFSTSHKEGVNQPAAVVMEDSSPHEALRCRVIKSSGREKPDSDDDLDIASLVTAKLVNTTITPEPEPKPQPNSREKAKTRGAPRTSLFENDKDAGMENESVKSVRASTNTMELPDTNGAGVKSQRPFSPREALRSRAIIKPVIVDKDVKKIMGGSGTETTLEKQKPVSKPGPNKVTSSITIYPSDSSSPRAAPGEALRERHTSTSNIQVGLAELTSVSNHVSSPFELSIHKHDITLQLAEAERMADGPLKDRPETVVSRSSIIIKPSDPVERNSHAPPAETIRWKSHSAPSEVGFSDARHVTVRNAWKSRRDLKSLEDPPTRIGKNVESTNSNAYTQRSSTDFSELEQPRSCLFEQGTRRVGPSSGDAPEPSSRRTQSSLTVSEVLTRRNRVGDTITVAAWNHSASMEEEGEDCTLSVYRQLHNSLDPSELPGKQGLPESGRVRAEERLRPTRPCAEEN
Take B3: the binding entry in assay [1] is listed as “binds”.
